Laboratory results reported in the supplement of paper PMC10849652.
This is one part of the list.

The chains behind the UniProt entries cited, without tags or fusion partners. Where a name states a change or a piece, a line headed by the entry shows the natural chain unless it says otherwise.
UniProt Q86UP2: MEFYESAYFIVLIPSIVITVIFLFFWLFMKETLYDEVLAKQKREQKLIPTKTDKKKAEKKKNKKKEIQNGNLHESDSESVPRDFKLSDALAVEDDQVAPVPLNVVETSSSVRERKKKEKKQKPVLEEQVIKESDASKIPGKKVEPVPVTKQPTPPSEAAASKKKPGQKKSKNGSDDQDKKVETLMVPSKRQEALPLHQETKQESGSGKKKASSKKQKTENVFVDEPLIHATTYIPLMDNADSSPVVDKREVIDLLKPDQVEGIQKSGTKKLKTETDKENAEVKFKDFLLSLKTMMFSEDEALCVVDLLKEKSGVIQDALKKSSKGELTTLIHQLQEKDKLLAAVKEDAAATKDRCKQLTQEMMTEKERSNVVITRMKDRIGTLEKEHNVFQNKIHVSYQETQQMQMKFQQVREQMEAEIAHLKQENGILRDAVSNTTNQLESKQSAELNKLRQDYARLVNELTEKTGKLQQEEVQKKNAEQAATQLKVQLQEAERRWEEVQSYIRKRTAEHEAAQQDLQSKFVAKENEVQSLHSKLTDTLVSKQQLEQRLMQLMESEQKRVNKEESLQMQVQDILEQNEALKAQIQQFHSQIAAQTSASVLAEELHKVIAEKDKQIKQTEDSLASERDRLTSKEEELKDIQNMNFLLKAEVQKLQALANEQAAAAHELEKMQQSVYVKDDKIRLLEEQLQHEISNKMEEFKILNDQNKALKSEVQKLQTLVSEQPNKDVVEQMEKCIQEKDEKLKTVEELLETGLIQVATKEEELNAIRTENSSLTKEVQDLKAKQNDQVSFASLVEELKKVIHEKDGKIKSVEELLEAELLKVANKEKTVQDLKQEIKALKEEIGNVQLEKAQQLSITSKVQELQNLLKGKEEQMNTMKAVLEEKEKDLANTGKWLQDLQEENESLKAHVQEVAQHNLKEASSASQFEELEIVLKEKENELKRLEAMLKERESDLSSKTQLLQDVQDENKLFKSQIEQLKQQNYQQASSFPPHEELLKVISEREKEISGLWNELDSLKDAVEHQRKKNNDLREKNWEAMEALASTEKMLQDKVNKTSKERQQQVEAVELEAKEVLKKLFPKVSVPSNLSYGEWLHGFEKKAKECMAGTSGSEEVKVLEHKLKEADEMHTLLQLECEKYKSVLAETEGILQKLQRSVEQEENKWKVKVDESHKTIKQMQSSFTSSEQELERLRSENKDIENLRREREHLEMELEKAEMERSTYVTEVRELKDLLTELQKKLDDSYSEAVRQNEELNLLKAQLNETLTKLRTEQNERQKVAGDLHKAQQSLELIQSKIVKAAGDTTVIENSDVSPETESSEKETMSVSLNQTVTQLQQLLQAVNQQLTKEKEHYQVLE
UniProt Q9UGP4: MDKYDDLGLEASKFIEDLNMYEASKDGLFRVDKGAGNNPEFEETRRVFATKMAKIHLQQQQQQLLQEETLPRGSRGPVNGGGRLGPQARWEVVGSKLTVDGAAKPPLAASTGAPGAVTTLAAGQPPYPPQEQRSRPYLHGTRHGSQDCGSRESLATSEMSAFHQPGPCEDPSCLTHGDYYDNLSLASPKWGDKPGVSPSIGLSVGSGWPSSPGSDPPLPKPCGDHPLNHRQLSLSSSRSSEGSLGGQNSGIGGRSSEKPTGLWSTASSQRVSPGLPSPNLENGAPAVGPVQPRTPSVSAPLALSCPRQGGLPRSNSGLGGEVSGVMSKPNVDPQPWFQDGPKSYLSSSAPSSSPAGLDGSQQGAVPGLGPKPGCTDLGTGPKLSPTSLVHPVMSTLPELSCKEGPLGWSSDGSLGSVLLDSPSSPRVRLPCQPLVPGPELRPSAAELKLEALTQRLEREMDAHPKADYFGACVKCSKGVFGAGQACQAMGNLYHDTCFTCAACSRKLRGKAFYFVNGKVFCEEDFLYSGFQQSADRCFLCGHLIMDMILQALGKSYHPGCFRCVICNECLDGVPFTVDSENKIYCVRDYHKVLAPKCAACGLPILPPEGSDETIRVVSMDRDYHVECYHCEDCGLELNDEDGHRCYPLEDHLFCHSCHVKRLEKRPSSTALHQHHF
UniProt P83111: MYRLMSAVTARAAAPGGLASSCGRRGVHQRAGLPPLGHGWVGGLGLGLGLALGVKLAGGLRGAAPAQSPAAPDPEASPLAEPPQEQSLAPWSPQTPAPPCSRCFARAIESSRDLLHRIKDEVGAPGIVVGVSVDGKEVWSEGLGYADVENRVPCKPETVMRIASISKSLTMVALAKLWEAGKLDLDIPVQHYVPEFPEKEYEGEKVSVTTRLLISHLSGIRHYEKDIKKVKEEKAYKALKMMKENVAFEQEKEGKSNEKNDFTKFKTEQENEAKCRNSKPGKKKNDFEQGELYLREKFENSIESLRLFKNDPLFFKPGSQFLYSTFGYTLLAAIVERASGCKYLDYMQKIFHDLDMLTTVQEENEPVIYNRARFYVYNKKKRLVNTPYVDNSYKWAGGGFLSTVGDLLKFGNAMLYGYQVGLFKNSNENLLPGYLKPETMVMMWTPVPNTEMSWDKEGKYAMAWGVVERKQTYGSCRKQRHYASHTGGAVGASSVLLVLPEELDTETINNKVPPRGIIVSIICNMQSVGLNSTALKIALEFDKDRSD
UniProt Q92615, whole entry, looked up: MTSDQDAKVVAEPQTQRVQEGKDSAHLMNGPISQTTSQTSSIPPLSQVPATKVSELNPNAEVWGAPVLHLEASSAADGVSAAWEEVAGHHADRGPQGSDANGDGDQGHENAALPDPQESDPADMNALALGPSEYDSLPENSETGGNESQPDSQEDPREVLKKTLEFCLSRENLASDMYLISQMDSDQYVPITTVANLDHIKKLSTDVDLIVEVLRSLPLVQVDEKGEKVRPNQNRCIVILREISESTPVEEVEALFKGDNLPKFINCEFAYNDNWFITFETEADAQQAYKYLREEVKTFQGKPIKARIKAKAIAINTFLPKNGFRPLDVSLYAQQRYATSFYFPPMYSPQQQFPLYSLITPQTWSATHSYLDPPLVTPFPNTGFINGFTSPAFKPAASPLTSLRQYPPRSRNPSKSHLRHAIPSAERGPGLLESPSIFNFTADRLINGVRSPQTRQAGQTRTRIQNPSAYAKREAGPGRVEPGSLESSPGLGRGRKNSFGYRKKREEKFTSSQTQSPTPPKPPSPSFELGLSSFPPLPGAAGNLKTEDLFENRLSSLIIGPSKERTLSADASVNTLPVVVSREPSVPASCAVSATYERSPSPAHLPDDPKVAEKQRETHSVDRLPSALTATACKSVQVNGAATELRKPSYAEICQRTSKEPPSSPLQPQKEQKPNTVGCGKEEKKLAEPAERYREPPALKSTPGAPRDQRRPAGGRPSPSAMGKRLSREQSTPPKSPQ
UniProt Q92539: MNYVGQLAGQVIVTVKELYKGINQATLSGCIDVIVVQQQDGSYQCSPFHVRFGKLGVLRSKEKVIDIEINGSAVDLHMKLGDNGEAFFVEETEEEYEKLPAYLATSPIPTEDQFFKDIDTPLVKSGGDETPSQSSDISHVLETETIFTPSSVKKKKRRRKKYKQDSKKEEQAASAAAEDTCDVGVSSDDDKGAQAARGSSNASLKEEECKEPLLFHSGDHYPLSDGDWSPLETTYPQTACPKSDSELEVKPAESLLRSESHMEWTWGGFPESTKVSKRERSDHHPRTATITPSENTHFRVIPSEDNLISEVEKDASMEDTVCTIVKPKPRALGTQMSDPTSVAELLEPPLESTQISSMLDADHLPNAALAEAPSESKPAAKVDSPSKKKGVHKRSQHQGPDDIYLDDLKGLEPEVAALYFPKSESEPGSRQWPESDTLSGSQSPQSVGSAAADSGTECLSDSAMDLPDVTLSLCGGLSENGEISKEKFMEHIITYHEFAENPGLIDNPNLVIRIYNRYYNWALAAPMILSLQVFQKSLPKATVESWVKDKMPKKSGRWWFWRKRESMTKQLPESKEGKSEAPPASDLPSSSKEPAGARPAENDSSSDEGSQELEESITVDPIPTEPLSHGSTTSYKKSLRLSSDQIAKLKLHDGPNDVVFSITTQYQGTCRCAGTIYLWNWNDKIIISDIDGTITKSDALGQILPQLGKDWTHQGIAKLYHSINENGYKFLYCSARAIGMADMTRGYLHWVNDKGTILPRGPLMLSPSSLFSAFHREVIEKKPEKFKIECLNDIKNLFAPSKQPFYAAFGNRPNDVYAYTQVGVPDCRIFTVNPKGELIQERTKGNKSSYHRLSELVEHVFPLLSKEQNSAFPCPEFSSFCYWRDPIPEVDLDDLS
UniProt Q9UHB6: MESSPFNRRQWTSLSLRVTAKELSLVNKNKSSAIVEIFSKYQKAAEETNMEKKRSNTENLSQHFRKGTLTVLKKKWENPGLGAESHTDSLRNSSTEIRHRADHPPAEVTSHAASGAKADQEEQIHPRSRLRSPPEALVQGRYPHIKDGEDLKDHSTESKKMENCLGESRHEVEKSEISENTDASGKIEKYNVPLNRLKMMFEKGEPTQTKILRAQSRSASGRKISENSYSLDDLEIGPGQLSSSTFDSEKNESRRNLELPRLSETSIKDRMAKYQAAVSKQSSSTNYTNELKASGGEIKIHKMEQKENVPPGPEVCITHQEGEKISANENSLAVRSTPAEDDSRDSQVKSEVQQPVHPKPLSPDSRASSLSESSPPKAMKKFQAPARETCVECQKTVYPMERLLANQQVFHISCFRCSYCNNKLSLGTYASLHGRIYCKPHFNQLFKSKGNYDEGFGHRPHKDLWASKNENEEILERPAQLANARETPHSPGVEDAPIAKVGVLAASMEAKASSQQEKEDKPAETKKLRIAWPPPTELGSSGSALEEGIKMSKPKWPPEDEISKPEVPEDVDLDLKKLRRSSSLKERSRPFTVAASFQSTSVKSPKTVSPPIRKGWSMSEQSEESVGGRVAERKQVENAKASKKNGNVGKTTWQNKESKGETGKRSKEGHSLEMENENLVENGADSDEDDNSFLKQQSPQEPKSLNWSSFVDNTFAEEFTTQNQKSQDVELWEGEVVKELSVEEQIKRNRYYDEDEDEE
UniProt Q6IAA8, whole entry, looked up: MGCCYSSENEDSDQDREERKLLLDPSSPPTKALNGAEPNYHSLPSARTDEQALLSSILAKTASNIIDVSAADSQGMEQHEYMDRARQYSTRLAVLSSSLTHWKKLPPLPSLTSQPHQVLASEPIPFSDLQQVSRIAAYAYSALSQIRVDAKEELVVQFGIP
UniProt Q53H82: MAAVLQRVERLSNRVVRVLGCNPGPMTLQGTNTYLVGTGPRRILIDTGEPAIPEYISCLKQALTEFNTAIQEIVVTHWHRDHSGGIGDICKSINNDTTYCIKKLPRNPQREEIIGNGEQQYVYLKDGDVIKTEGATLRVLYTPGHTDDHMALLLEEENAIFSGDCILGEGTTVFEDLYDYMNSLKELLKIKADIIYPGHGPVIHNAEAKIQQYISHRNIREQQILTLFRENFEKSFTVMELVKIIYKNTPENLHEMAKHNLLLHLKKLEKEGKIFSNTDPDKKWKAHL
UniProt P20700: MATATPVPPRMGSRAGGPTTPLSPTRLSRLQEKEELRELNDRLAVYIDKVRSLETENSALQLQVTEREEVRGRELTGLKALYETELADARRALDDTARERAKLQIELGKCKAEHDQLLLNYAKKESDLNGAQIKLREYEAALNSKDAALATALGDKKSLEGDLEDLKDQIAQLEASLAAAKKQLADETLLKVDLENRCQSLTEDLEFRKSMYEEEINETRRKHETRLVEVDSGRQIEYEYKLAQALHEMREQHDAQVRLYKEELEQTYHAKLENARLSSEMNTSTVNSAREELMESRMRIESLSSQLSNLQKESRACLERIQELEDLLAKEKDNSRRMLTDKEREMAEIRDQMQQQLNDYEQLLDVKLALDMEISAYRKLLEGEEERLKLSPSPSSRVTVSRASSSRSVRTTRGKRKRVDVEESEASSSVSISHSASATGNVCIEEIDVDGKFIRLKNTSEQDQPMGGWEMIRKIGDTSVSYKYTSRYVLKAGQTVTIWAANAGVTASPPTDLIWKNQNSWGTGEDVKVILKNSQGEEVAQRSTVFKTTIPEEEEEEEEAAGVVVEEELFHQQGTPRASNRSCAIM
UniProt Q16719: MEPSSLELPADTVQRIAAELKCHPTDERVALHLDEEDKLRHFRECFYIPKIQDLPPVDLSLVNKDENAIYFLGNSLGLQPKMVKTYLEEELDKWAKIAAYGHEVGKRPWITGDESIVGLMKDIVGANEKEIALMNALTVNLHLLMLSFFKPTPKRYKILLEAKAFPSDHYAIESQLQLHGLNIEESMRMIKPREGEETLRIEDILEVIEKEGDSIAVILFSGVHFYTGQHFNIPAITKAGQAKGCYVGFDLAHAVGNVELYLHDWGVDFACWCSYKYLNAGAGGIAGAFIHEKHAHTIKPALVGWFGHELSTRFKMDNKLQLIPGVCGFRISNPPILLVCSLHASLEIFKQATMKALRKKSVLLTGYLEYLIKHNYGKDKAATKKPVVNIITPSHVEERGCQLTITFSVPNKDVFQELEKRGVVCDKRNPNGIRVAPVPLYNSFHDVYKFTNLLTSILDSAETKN
UniProt Q9Y2Q5, whole entry, looked up: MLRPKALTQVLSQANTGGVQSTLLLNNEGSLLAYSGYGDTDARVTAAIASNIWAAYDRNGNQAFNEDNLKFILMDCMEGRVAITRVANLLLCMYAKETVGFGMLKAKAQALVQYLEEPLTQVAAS

How the values were obtained:
Experiment in all cases: log2 fold change, soluble protein after heating vs DMSO (PISA); higher = thermal stabilisation; K562 cells, 10 uM, 30 min; active = over 0.2 and 3.5 SD of the protein, either way, in both replicates (recomputed)
[1] = compound: Cc1ccc(NC(=O)c2ccc(CN3CC[C@H](N(C)C)C3)c(C(F)(F)F)c2)cc1Nc1nccc(-c2cncnc2)n1 [bafetinib]
Procedure, shortened: (§1)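 K562 cells (2×10^6 cells/mL) were treated with 10 μM compound for 30 min, and aliquots were heated for 3 min over 48°C-58°C. Pooled aliquots were extracted in PBS with 0.5% NP-40 at 4°C, and the supernatant after 21,000xg for 90 min was measured by TMTpro 16plex LC-MS/MS with channel sums equalised. Reported thermal stability, relative to control samples and from duplicates, is a log2 fold change.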

[2] = compound: Cc1cccc(CC(=O)N2CCc3c2ccc(-c2cn(C)c4ncnc(N)c24)c3F)n1
Procedure, shortened: as §1

[3] = compound: Cc1cn(-c2cc(NC(=O)c3ccc(C)c(Nc4nccc(-c5cccnc5)n4)c3)cc(C(F)(F)F)c2)cn1 [nilotinib]
Procedure, shortened: as §1

[4] = compound: Cc1nc(Nc2n[nH]c3c2CN(C(=O)N[C@H](CN(C)C)c2ccccc2)C3(C)C)c2sccc2n1
Procedure, shortened: as §1

[5] = compound: Cc1nc(Nc2ncc(C(=O)Nc3c(C)cccc3Cl)s2)cc(N2CCN(CCO)CC2)n1 [dasatinib]
Procedure, shortened: as §1

[6] = compound: Cc1ncc(-c2ccnc(Nc3ccc(S(C)(=O)=O)cc3)n2)n1C(C)C
Procedure, shortened: as §1

[7] = compound: Cn1cc(-c2ccc3c(c2)CCN3C(=O)Cc2cccc(C(F)(F)F)c2)c2c(N)ncnc21
Procedure, shortened: as §1

[8] = compound: Cn1cc(-c2ccc3nnc(C(F)(F)c4ccc5ncccc5c4)n3n2)cn1
Procedure, shortened: as §1

[9] = compound: Cn1cncc1[C@@](N)(c1ccc(Cl)cc1)c1ccc2c(c1)c(-c1cccc(Cl)c1)cc(=O)n2C [tipifarnib]
Procedure, shortened: as §1

[10] = compound: FC(F)(F)c1ccc(/C=C/c2nc(COc3ccc(CCCCn4ccnn4)cc3)co2)cc1 [mubritinib]
Procedure, shortened: as §1

[11] = compound: NC(=O)Nc1cc(-c2cccc(F)c2)sc1C(=O)N[C@H]1CCCNC1
Procedure, shortened: as §1

[12] = compound: NC(=O)c1cnc(N[C@@H]2CCCC[C@@H]2N)nc1Nc1cccc(-n2nccn2)c1
Procedure, shortened: as §1

[13] = compound: NC1(c2ccc(-c3nc4ccn5c(=O)[nH]nc5c4cc3-c3ccccc3)cc2)CCC1
Procedure, shortened: as §1

[14] = compound: NCC(=O)Nc1ccc(-n2nc(C(F)(F)F)cc2-c2ccc3c(ccc4ccccc43)c2)cc1
Procedure, shortened: as §1

[15] = compound: Nc1ccccc1NC(=O)c1ccc(CNC(=O)OCc2cccnc2)cc1 [entinostat]
Procedure, shortened: as §1

[16] = compound: O=C(CCCCCCC(=O)Nc1ccccc1)NO [vorinostat]
Procedure, shortened: as §1

[17] = compound: O=C(CCCCCCNC(=O)c1cnc(N(c2ccccc2)c2ccccc2Cl)nc1)NO [citarinostat]
Procedure, shortened: as §1

[18] = compound: O=C(O)c1ccc2c(c1)nc(Nc1cccc(Cl)c1)c1ccncc12 [silmitasertib]
Procedure, shortened: as §1

[19] = compound: O=C1NC(=O)C(c2cnc3ccccn23)=C1c1cn2c3c(cc(F)cc13)CN(C(=O)N1CCCCC1)CC2
Procedure, shortened: as §1

[20] = compound: c1cc(OCCN2CCCCC2)cc(-c2n[nH]c3ccc(-c4nnc[nH]4)cc23)c1
Procedure, shortened: as §1

Measured: log2 fold change

LIMS1 isoform 3 (UniProt P48059)
inactive: [1] -0.024 | [2] 0.008 | [3] -0.026 | [4] 0.002 | [5] 0.017 | [6] 0.006 | [7] 0.019 | [8] 0.02 | [9] -0.027 | [10] 0.002 | [11] -0.024 | [12] -0.002 | [13] 0.057 | [14] 0.041 | [15] -0.015 | [16] -0.005 | [17] -0.032 | [18] 0.007 | [19] -0.014 | [20] -0.039

KTN1 (UniProt Q86UP2)
inactive: [1] 0.042 | [2] 0.013 | [3] -0.117 | [4] 0.055 | [5] -0.013 | [6] 0.063 | [7] -0.081 | [8] -0.03 | [9] -0.064 | [10] -0.032 | [11] 0.036 | [12] 0.06 | [13] 0.035 | [14] -0.038 | [15] 0.05 | [16] 0.027 | [17] 0.033 | [18] 0.06 | [19] 0.148 | [20] -0.189

LCP1 (UniProt P13796)
inactive: [1] -0.02 | [2] -0.001 | [3] 0.012 | [4] -0.014 | [5] 0.068 | [6] -0.008 | [7] 0.012 | [8] 0.009 | [9] 0.04 | [10] 0.04 | [11] -0.032 | [12] -0.017 | [13] 0.016 | [14] 0.007 | [15] -0.035 | [16] -0.011 | [17] 0.005 | [18] 0.001 | [19] -0.073 | [20] -0.022

LIMD1 (UniProt Q9UGP4)
inactive: [1] -0.143 | [2] 0.017 | [3] 0.023 | [4] -0.085 | [5] 0.001 | [6] -0.008 | [7] 0.021 | [8] -0.015 | [9] -0.071 | [10] 0.012 | [11] 0.009 | [12] 0.005 | [13] 0.004 | [14] -0.029 | [15] -0.038 | [16] 0.025 | [17] 0.052 | [18] 0.03 | [19] -0.06 | [20] 0.01

LACTB (UniProt P83111)
inactive: [1] -0.08 | [2] -0.05 | [3] -0.011 | [4] 0.022 | [5] 0.105 | [6] -0.084 | [7] -0.096 | [8] -0.297 | [9] 0.03 | [10] -0.107 | [11] 0.194 | [12] 0.037 | [13] 0.029 | [14] -0.159 | [15] 0.065 | [16] -0.016 | [17] -0.09 | [18] 0.103 | [19] 0.06 | [20] -0.08

LARP4B (UniProt Q92615)
inactive: [1] 0.022 | [2] -0.025 | [3] -0.055 | [4] -0.192 | [5] -0.072 | [6] -0.092 | [7] -0.052 | [8] -0.031 | [9] -0.008 | [10] -0.038 | [11] 0.028 | [12] -0.042 | [13] 0.048 | [14] 0.022 | [15] 0.038 | [16] 0.027 | [17] -0.001 | [18] 0.008 | [19] 0.086 | [20] -0.112

LPIN2 (UniProt Q92539)
inactive: [1] -0.123 | [2] -0.034 | [3] -0.083 | [4] 0.05 | [5] -0.056 | [6] 0.02 | [7] 0.163 | [8] 0.004 | [9] 0.061 | [10] 0.013 | [11] 0.024 | [12] -0.056 | [13] -0.025 | [14] 0.044 | [15] -0.001 | [16] 0.024 | [17] -0.067 | [18] -0.072 | [19] -0.203 | [20] -0.036

LIMS1 (UniProt P48059)
inactive: [1] 0.007

Two entries picked at random from those above, as already listed:
LPIN2 (UniProt Q92539)
inactive: [1] -0.123 | [2] -0.034 | [3] -0.083 | [4] 0.05 | [5] -0.056 | [6] 0.02 | [7] 0.163 | [8] 0.004 | [9] 0.061 | [10] 0.013 | [11] 0.024 | [12] -0.056 | [13] -0.025 | [14] 0.044 | [15] -0.001 | [16] 0.024 | [17] -0.067 | [18] -0.072 | [19] -0.203 | [20] -0.036

LACTB (UniProt P83111)
inactive: [1] -0.08 | [2] -0.05 | [3] -0.011 | [4] 0.022 | [5] 0.105 | [6] -0.084 | [7] -0.096 | [8] -0.297 | [9] 0.03 | [10] -0.107 | [11] 0.194 | [12] 0.037 | [13] 0.029 | [14] -0.159 | [15] 0.065 | [16] -0.016 | [17] -0.09 | [18] 0.103 | [19] 0.06 | [20] -0.08

Additional records

LAMTOR5 (UniProt O43504)
inactive: [1] -0.087 | [2] -0.157 | [3] 0.068 | [4] -0.027 | [5] -0.042 | [6] -0.113 | [7] -0.005 | [8] 0.14 | [9] 0.35 | [10] 0.105 | [11] 0.141 | [12] 0.101 | [13] -0.091 | [14] -0.002 | [15] 0.099 | [16] 0.018 | [17] 0.041 | [18] 0.029 | [19] -0.025 | [20] -0.034

LIMA1 isoform 4 (UniProt Q9UHB6)
inactive: [1] -0.115 | [2] 0.019 | [3] -0.136 | [4] -0.112 | [5] 0.179 | [6] 0.052 | [7] -0.154 | [8] -0.071 | [9] 0.088 | [10] 0.019 | [11] 0.062 | [12] -0.045 | [13] 0.081 | [14] 0.006 | [15] 0.004 | [16] 0.067 | [17] -0.024 | [18] -0.006 | [19] -0.073 | [20] -0.012

LAMTOR1 (UniProt Q6IAA8)
inactive: [1] -0.072 | [2] 0.042 | [3] -0.036 | [4] -0.04 | [5] 0.012 | [6] -0.043 | [7] -0.002 | [8] 0.051 | [9] 0.004 | [10] 0.016 | [11] 0.019 | [12] -0.108 | [13] -0.255 | [14] -0.006 | [15] 0.088 | [16] -0.034 | [17] 0.029 | [18] -0.09 | [19] -0.122 | [20] 0.126

LACTB2 (UniProt Q53H82)
inactive: [1] -0.026 | [2] 0.024 | [3] 0.05 | [4] -0.007 | [5] 0.052 | [6] 0.011 | [7] 0 | [8] 0.009 | [9] 0.012 | [10] 0.01 | [11] 0.005 | [12] -0.007 | [13] 0.02 | [14] 0.025 | [15] -0.006 | [16] -0.049 | [17] 0.021 | [18] -0.017 | [19] -0.008 | [20] 0.03

LMNB1 (UniProt P20700)
inactive: [1] -0.089 | [2] -0.004 | [3] 0.037 | [4] -0.11 | [5] 0.092 | [6] -0.117 | [7] -0.059 | [8] -0.074 | [9] 0.105 | [10] -0.069 | [11] 0.094 | [12] -0.073 | [13] 0.078 | [14] -0.018 | [15] 0.024 | [16] -0.029 | [17] 0.033 | [18] 0.097 | [19] -0.105 | [20] -0.072

KYNU (UniProt Q16719)
inactive: [1] -0.091 | [2] 0.064 | [3] 0.026 | [4] 0.009 | [5] -0.015 | [6] 0.008 | [7] -0.046 | [8] -0.005 | [9] -0.008 | [10] 0.017 | [11] -0.045 | [12] 0.025 | [13] -0.011 | [14] 0.025 | [15] 0.016 | [16] 0.011 | [17] 0.027 | [18] -0.021 | [19] 0.058 | [20] -0.052

LAMTOR2 (UniProt Q9Y2Q5)
inactive: [1] -0.102 | [2] 0.045 | [3] 0.014 | [4] -0.066 | [5] 0.048 | [6] -0.124 | [7] -0.046 | [8] 0.121 | [9] 0.119 | [10] 0.072 | [11] 0.002 | [12] -0.052 | [13] -0.098 | [14] 0 | [15] 0.05 | [16] 0.009 | [17] 0.034 | [18] 0.058 | [19] -0.08 | [20] -0.107

LDHA isoform 3 (UniProt P00338)
inactive: [1] 0.024 | [2] -0.026 | [3] 0.031 | [4] 0.006 | [5] 0.002 | [6] 0.014 | [7] 0.01 | [8] 0.024 | [9] -0.036 | [10] 0.018 | [11] 0.069 | [12] 0.015 | [13] 0.021 | [14] 0.046 | [15] -0.013 | [16] -0.005 | [17] 0.028 | [18] -0.052 | [19] -0.004 | [20] -0.029
